Data on 1 substance can be found in paper PMC10762670.

Changes are numbered by the printed parent chain. These are yes or no findings as the source states them, for the method shown. Binding seen in cells or lysates may run through a third protein. Some results given as binding are weak or reduced against the parent protein; the word gives no strength. Where a sequence is shown, tags or fusion partners need not be part of it.

The target in experiment [1] is T1, FLAG-tagged RBM42-A438T (patient missense variant c.1312G>A, p.A438T) (human) (UniProt Q9BTD8).
T1 sequence: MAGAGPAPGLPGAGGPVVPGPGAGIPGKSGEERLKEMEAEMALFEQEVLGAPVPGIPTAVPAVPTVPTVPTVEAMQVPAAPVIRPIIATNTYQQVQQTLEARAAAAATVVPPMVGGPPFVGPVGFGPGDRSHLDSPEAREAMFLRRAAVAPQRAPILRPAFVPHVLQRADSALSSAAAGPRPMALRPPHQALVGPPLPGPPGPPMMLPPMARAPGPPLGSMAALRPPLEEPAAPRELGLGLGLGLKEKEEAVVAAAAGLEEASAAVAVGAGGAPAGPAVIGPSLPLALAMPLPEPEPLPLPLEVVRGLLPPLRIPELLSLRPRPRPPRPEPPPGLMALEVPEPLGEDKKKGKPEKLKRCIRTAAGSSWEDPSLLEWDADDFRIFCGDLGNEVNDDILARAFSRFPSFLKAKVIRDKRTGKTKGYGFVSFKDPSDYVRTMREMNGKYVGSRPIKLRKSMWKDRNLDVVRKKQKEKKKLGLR
Kind of experiment: co-IP; 293T cells transfected with 2.5 ug DNA of FLAG-tagged RBM42, 48 h; NETN lysis buffer (250 mmol/L NaCl, 5 mmol/L EDTA, 50 mmol/L Tris-HCl, 0.5% NP40); 1 ug FLAG antibody overnight at 4°C, Protein A/G Plus-Agarose; immunoblot for endogenous hnRNP K.

Experiment [2] deals with T2, FLAG-tagged RBM42-WT (RNA-binding motif protein 42, wild type) (human) (UniProt Q9BTD8).
T2 sequence: T1 sequence with T438A
Described as above.

“hnRNP K (heterogeneous nuclear ribonucleoprotein K) (from UniProt P61978 1-463)”: the binding result in experiment [1] and in experiment [2] was “binds” throughout.
